6 compounds from PMC7865754, “Design and Synthesis of π-Extended Resveratrol Analogues and In Vitro Antioxidant and Anti-Inflammatory Activity Evaluation” (Molecules, 2021) can be followed below.

In this data set the test system is NO production in LPS-treated RAW 264.7 cells. The experiment in a line: Inhibition of NO production (Griess assay, nitrite) in LPS-treated RAW 264.7 cells. Format: cell-based, Murine. As to conditions: ratio of toxicity (LD50) / anti-inflammatory potency (ED50). An excerpt:
In the pathogenesis of inflammatory-related disorders, NO is recognized as one of the important mediators. […] Herein, to understand the anti-inflammatory properties of the resveratrol analogues, we studied their inhibitory effects against NO production in LPS-treated RAW 264.7 cells. Although it is not possible to measure NO quantitatively in a biological environment due to its rapid oxidation to NO2 (nitrite), short physiological half-life and presence of other free radicals, NO secretion activity in cells is indirectly determined by Griess assay counting its stable product NO2 levels. The inhibitory effects of 1–7 on NO production were collected in Table 2. […] Cell viability was not affected up to 50 μM except for 2. We also applied in vitro efficacy index (iEI) paradigm, the ratio of toxicity (LD50)/anti-inflammatory potency (ED50), to confirm that the anti-inflammatory activity is in the viable cells only. […] On the whole, compounds 5 and 7 have much-improved iEI values compared to any other compounds.
Anti-inflammatory activity was measured as the effect of compounds on inhibiting NO production versus cell viability. Their inhibitory effect was also tested for pro-inflammatory cytokine gene expression. […]
NO assay and cell viability test
Murine macrophage, Raw 264.7 cells were grown in Dulbecco’s modified Eagle’s medium (Gibco, Carlsbad , CA, USA), supplemented with 2 mM glutamine, antibiotics (100 U/mL of penicillin A and […] of streptomycin) and 10% FBS (Gibco). Cells were cultured in 96-well plates (5×10^4 cells), treated with serial dilutions of compound (3.125-100 µM) and stimulated with LPS (1 µg/mL) for 24 h at 37°C. After incubation, the supernatant was collected and the amount of nitrite was quantified using the Griess Reagent System ( Promega, Fitchburg, WI, USA ). For the correction of NO production, cell viability was measured using the CellTiter 96® Aqueous one solution cell proliferation assay kit (Promega). Cells were incubated with varying amounts of compound for 24 h, then MTS (tetrazolium salt) reagent was added to the plates. After 1h, the absorbance at 490 nm was read using a microplate reader (Thermo Scientific, Waltham, MA, USA).
Statistical analysis. Statistical significance was analyzed using the GraphPad Prism 5 software (GraphPad Software, San Diego, CA, USA). The comparison of two groups was performed by the unpaired t test. Values of *P less than 0.05, **P less than 0.01 and ***P less than 0.001 were considered statistically significant.
A general note: The Griess reaction detects nitrite, a stable product of nitric oxide.
Turning to `Oc1cc(O)cc(/C=C/c2ccc3cc(O)ccc3c2)c1` [Compound 2], the “iEI (LD50/ED50), in vitro efficacy index” value is given as 0.98. The value for `Oc1cc(O)cc(/C=C/c2cnc3cc(O)ccc3c2)c1` [Compound 3] was 3.75; that for `Oc1cc(O)cc(/C=C/c2ccc3cc(O)ccc3n2)c1` [Compound 4] was 3.18.

On to `Oc1cc(O)cc(/C=C/c2cc3ccc(O)cc3cn2)c1` [Compound 5], for which the “iEI (LD50/ED50), in vitro efficacy index” value stood at 4.84. For `Oc1cc(O)cc(/C=C/c2cnc3cc(O)ccc3n2)c1` [Compound 6], the “iEI (LD50/ED50), in vitro efficacy index” value is listed as 2.11. On to `Oc1cc(O)cc(/C=C/c2ncc3cc(O)ccc3n2)c1` [Compound 7], for which the “iEI (LD50/ED50), in vitro efficacy index” value is 4.27.
